Not every detail of the peptide structures is certain; ends, links or a residue may be inferred. Where a SMILES comes first, the peptide text is derived from it.
Molecular target: T1, fibrin (Homo sapiens, UniProt P02675+P02679)
T1 construct: thrombin cleaves the N-termini of both the Aα- and Bβ-chains, exposing new cryptic residues
T1 sequence (P02679 27-433 limits assumed): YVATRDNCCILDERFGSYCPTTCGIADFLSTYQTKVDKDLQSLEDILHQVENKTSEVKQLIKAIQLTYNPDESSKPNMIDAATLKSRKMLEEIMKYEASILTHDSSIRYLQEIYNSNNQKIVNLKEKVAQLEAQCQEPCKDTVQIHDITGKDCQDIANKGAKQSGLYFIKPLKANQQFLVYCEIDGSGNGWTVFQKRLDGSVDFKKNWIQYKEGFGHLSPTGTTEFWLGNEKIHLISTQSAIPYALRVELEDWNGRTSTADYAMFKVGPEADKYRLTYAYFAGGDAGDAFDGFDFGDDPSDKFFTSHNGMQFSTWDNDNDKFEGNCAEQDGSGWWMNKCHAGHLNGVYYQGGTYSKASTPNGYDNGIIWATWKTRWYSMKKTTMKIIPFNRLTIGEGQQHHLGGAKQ
T1 sequence (P02675 45-491 limits assumed): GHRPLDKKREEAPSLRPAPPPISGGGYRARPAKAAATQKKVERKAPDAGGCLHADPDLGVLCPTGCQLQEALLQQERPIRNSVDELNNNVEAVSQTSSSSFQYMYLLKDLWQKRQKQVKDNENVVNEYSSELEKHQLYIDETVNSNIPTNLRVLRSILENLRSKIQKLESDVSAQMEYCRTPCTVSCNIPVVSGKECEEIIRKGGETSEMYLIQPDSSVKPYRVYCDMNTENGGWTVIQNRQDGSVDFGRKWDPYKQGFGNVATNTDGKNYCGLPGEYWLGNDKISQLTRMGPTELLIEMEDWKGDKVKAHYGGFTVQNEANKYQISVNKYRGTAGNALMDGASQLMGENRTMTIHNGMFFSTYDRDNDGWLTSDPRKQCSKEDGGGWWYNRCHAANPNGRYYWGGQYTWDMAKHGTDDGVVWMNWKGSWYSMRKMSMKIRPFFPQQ
T1 sequence (P02671 36-866 partner limits assumed): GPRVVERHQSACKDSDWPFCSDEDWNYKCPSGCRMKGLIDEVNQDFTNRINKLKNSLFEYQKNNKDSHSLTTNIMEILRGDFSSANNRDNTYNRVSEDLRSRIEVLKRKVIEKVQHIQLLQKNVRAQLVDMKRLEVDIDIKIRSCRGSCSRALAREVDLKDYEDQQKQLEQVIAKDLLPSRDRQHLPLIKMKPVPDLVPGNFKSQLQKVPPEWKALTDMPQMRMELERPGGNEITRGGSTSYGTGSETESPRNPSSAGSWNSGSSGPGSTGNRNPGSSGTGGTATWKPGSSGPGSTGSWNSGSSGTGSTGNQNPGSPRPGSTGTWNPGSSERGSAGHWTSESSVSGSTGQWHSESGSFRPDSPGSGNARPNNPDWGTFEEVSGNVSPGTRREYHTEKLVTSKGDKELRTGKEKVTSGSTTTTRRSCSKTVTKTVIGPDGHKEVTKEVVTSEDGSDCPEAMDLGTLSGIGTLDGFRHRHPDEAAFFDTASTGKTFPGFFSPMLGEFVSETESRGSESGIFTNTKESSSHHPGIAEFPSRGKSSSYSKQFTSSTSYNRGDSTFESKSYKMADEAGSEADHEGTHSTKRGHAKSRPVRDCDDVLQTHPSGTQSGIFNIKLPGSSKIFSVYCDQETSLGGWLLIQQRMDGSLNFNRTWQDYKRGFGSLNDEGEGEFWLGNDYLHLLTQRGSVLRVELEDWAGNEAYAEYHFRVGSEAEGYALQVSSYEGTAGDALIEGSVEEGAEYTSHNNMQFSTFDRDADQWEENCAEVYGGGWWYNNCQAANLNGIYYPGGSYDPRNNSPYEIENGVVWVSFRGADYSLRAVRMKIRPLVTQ
Assay: Percent clottable protein after 1 hr thrombin-induced polymerization with knob peptides
Assay type: biochemical
Details: same concentration

Question: How did the “inhibition of fibrin assembly (percent clottable protein)” value turn out when `C[C@H](NC(=O)[C@@H]1CCCN1C(=O)[C@H](Cc1ccccc1)NC(=O)[C@@H]1CCCN1C(=O)[C@H](CCCNC(=N)N)NC(=O)[C@@H]1CCCN1C(=O)CN)C(=O)N[C@@H](CS)C(=O)O` [GPRPFPAC] (H-GPRPFPAC-OH) was run?
Answer: The value was “inhibits fibrin assembly (i.e. clot formation) to a greater extent”.

— patent publication US8513380B2, “Peptides for binding fibrinogen and fibrin” (Georgia Tech Research Corporation, priority 2009, dated 2013)
